From PMC11056994, “Potentiating Activity of GmhA Inhibitors on Gram-Negative Bacteria” (Journal of Medicinal Chemistry, 2024)

Tested on: E. coli C7 (018:K1:H7) LPS biosynthesis
Assay: Inhibition of bacterial LPS biosynthesis (silver-stained LPS SDS-PAGE)
Assay type: cell-based
Conditions: for Ratio EC50/IC50: LPS biosynthesis EC50 / GmhA IC50; for EC50/IC50: supplementary csv
Method: The compounds to be tested were prepared in deionized water/DMSO (50/50) solutions and added (25 μL) in sterile culture microtubes. The test bacterial isolate was isolated on tryptic soy agar (TSA) overnight. Isolated colonies were cultured in 10 mL of LB medium at 37 °C up to an OD of typically 0.15. These exponentially growing bacteria were finally diluted to 5 × 10^5 cfu/mL and added in each well (225 μL) for incubation with the compounds at 37 °C for approximately 5 h, up to an OD of ≈0.2–0.4. Some test compounds, e.g., phospho-sugars are actively transported into the bacterial cytosol via the phospho-sugar transporter UhpT (Figure S3). 2.5 μL portion of a 10 mM water solution of glucose-6-phosphate (G6P, 100 μM final concentration, from Sigma) was added in the culture tube in order to induce UhpT expression. LPS extraction: Bacterial cultures were normalized via OD determination, pelleted, and washed with 1 mL of phosphate-buffered-saline (PBS). The pellets were then denatured for 10 min at 95–100 °C in 50 μL of 0.2% sodium dodecyl sulfate (SDS), β-mercaptoethanol 1%, glycerol 36%, Tris 30 mM, pH 7.4, and bromophenol blue 0.001%. Samples were cooled down to room temperature, supplemented with 1.5 μL of proteinase K at 20 mg/mL, incubated for 1 h at 55 °C, and centrifuged for 30 min at 13,000 rpm at 25 °C. The resulting supernatant, containing LPS, was finally analyzed by SDS-PAGE electrophoresis. LPS SDS-PAGE electrophoresis: Polyacrylamide gels (16%/4% acrylamide for separation and concentration, respectively) were prepared, loaded with 8 μL of LPS extracts, and migrated. Silver staining: Gels were incubated overnight in 5% acetic acid/40% ethanol/deionized water, treated by 1% periodic acid/5% acetic acid for 15 min, washed 4 times for 10 min in deionized water, and finally incubated for 18 min in the dark in a silver nitrate solution composed of 56 mL of 0.1 M NaOH (56 mL), 33% aq ammonia (4 mL), 5% AgNO3 (45 mL), and deionized water (195 mL). Gels were then washed extensively in deionized water for 30 min and incubated for 10–15 min (up to LPS band appearance) in the revelation mix composed of 300 mL of deionized water (300 mL), 36.5% formaldehyde (0.3 mL, Fluka), and 2.3 M citric acid (0.1 mL). The revelation was stopped by incubating the gels in 10% acetic acid for 5 min. Gels were finally washed in deionized water, numerized with a Samsung PL51 camera, and analyzed by ImageJ software. The percentage of inhibition of LPS heptosylation was defined as the relative area of the Re-LPS band compared to the cumulated areas of Re-LPS and Core-LPS bands.

| SMILES | Ratio EC50/IC50 | EC50/IC50 |
| --- | --- | --- |
| O=CN(O)C[C@H](O)[C@H](O)[C@H](O)COP(=O)(O)O [Compound 17] | 8,300 | – |
| O=CN(O)C[C@H](O)[C@H](O)[C@H](O)CP(=O)(O)O [Compound 20] | >1,400 | >1400 |
| O=CN(O)C[C@H](O)[C@H](O)[C@H](O)/C=C/P(=O)([O-])O.[Na+] [Compound 25] | 8,700 | – |
| O=CN(O)C[C@H](O)[C@H](O)[C@H](O)C(O)C(O)P(=O)([O-])O.[Na+] (some centres unmarked) [Compound 27] | >1,300 | >1300 |
| O=CN(O)C[C@H](O)[C@H](O)[C@H](O)C(O)CP(=O)([O-])O.[Na+] (some centres unmarked) [Compound 31] | 2,400 | – |
| O=CN(O)C[C@H](O)[C@H](O)[C@H](O)CC(O)P(=O)([O-])O.[Na+] (some centres unmarked) [Compound 41] | 10,000 | – |
| O=CN(O)C[C@H](O)[C@H](O)[C@H](O)CC(F)P(=O)([O-])O.[Na+] (some centres unmarked) [Compound 76] | 5,100 | – |
| O=C(NO)[C@@H](O)[C@H](O)[C@H](O)[C@H](O)COP(=O)(O)O [Compound 96] | > 6,000 | >6000 |
